In publication PMC12768407:
Results are given in words; binding and its absence hold for the method and conditions named. In cells and extracts the contact can be indirect. Some binding calls cover weakened binding; strength is not graded here. For some of these results: Sequences can lack the tags named with a protein.

Amino acid sequences for entries named in this document (tags omitted). Residues count along the entry.
UniProt P62944, residues 592-937: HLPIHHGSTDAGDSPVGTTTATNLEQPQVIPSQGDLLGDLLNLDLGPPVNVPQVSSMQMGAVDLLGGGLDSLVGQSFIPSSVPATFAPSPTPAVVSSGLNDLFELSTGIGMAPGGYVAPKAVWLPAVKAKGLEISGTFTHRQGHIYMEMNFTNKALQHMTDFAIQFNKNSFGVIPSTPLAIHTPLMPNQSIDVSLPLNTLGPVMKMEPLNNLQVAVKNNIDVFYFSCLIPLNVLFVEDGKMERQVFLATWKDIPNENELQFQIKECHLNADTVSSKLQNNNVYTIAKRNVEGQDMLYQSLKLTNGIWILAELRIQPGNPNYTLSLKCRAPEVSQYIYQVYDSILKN
UniProt P17427, residues 701-938: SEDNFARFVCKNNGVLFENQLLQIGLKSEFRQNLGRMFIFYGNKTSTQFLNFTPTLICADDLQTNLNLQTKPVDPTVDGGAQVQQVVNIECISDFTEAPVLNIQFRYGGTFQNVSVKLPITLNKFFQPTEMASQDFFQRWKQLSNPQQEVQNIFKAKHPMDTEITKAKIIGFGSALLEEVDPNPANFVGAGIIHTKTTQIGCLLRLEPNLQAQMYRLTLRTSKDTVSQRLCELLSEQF
UniProt Q96CW1: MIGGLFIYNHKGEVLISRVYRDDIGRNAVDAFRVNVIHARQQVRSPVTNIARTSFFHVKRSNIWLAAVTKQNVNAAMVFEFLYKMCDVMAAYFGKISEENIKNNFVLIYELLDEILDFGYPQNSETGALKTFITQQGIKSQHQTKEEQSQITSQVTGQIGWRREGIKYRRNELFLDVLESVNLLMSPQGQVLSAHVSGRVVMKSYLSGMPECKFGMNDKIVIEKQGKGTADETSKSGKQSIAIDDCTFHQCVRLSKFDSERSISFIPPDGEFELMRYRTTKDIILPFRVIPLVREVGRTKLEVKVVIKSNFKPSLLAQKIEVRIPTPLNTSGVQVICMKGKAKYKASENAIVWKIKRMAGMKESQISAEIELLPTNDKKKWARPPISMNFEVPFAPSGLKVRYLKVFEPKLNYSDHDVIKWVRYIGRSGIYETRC
UniProt P63010: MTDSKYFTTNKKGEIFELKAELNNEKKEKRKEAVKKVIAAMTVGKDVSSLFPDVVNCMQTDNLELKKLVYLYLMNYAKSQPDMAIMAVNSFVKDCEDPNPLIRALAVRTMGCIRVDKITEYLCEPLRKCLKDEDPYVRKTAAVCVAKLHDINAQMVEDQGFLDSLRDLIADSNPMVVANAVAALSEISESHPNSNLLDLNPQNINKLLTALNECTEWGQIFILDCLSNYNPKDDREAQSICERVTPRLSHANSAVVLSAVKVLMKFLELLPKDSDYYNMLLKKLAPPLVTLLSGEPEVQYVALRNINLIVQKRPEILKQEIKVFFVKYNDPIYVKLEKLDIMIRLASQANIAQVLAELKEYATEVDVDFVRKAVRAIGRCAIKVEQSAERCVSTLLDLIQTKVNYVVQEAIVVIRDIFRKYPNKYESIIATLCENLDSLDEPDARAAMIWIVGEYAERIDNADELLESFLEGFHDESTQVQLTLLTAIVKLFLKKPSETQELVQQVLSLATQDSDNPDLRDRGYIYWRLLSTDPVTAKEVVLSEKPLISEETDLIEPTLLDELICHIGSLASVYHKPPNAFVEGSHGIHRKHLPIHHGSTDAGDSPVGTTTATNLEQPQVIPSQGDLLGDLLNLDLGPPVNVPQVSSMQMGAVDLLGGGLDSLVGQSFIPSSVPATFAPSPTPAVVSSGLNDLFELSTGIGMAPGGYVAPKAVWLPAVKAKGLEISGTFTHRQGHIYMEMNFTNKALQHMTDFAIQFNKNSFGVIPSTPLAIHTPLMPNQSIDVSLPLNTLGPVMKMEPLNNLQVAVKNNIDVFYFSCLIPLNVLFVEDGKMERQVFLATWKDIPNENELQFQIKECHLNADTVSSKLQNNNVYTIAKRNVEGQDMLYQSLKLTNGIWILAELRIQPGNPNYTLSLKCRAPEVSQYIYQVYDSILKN

Key:
eGFP-CCDC32(FL) (human) = eGFP-CCDC32(FL) (human) (UniProt Q9BV29); assay: co-IP; IP of eGFP with anti-GFP magnetic beads from lysates of ARPE-HPV cells stably expressing eGFP, eGFP-CCDC32(FL), eGFP-CCDC32(∆78–98) or eGFP-CCDC32(1-54); 0.5 mg lysate protein, 50 mM Tris pH 7.5, 150 mM NaCl, 0.5% Triton X-100, 4 °C, 2 hr; Western blotting
[1] = biological target: eGFP-CCDC32(∆78–98) (human) (UniProt Q9BV29); assay: as above
GST-AP2-β-AD (rat) = GST-AP2-β-AD (rat) (UniProt P62944); assay: pull-down; purified GST fusion proteins pre-bound to anti-GST beads, added to 0.5 mg lysate of ARPE-HPV eGFP-CCDC32(FL) cells, 4 °C, 2 hr; immunoblot of GFP; only the target purified
GST-AP2-α-AD (mouse) = GST-AP2-α-AD (mouse) (UniProt P17427); assay: as above
[2] = biological target: T1, eGFP-CCDC32(FL) (human), Q9BV29; assay: co-IP; IP of eGFP with anti-GFP magnetic beads from lysates of ARPE-HPV cells stably expressing eGFP, eGFP-CCDC32(FL), eGFP-CCDC32(∆78–98) or eGFP-CCDC32(1-54); 0.5 mg lysate protein, 50 mM Tris pH 7.5, 150 mM NaCl, 0.5% Triton X-100, 4 °C, 2 hr; Western blotting; details: remark: other sources report otherwise
T1 chain: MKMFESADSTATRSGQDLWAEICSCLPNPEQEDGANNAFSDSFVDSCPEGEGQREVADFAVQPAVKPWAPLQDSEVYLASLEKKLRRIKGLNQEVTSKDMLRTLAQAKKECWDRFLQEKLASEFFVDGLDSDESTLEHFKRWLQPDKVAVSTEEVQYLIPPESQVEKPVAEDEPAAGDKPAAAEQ

Molecule: AP2 µ2 subunit (from UniProt Q96CW1 1-435)
- binding (eGFP-CCDC32(FL) (human)): binds
- binding [1]: binds

Molecule: AP2 β2 subunit (from UniProt P63010 1-937)
- binding (eGFP-CCDC32(FL) (human)): binds
- binding [1]: binds

Molecule: eGFP-CCDC32(FL) (from UniProt Q9BV29 1-185)
- binding (GST-AP2-β-AD (rat)): no binding
- binding (GST-AP2-α-AD (mouse)): binds

B1: CCDC32 (endogenous), Q9BV29 1-185 (protein)
chain: T1 chain
- binding [2]: no binding
